These are yes or no findings as the source states them, for the method shown. Binding can be weak; no strength is given. For some of these results: In cells and extracts the contact can be indirect.
Experiments:
[1] = target: MYC2 fused to the C-terminal domain of YFP (BiFC construct) (Arabidopsis thaliana) (UniProt Q39204); assay: split reporter; BiFC with YFP halves (pYFN43, pYFC43) in epidermal cells of N. benthamiana leaves co-infiltrated with A. tumefaciens GV3101; confocal imaging
[2] = target: MYC2, yeast two-hybrid fusion (Arabidopsis thaliana) (UniProt Q39204); assay: two-hybrid; yeast AH109; SPF1/SPF2 in pDEST22 (GAL4 activation domain), MYC2 in pDEST32 (GAL4 DNA-binding domain); growth on medium lacking Trp, Leu, His with 3-AT (2 mM); beta-galactosidase assay with CPRG

Sequences of proteins named here, by UniProt entry; tags and fusion partners are left off. A change or cut given only in a name is not applied to a line headed by its entry.
UniProt Q39204: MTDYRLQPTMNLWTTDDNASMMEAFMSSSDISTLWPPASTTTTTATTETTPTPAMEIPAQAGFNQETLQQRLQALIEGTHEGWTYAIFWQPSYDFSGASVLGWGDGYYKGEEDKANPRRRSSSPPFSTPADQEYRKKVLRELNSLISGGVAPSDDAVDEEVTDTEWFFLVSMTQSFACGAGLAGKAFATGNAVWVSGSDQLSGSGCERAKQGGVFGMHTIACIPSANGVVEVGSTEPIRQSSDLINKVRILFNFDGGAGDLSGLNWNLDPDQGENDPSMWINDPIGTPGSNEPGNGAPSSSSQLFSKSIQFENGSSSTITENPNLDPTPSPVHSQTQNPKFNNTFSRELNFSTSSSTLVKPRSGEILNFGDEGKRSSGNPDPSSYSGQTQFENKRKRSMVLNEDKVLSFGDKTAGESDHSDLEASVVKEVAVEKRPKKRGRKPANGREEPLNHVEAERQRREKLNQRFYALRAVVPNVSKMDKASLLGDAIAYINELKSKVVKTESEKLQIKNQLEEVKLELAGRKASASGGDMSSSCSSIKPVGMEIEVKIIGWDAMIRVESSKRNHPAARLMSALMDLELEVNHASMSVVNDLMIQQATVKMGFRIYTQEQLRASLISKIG
UniProt Q8L7S0: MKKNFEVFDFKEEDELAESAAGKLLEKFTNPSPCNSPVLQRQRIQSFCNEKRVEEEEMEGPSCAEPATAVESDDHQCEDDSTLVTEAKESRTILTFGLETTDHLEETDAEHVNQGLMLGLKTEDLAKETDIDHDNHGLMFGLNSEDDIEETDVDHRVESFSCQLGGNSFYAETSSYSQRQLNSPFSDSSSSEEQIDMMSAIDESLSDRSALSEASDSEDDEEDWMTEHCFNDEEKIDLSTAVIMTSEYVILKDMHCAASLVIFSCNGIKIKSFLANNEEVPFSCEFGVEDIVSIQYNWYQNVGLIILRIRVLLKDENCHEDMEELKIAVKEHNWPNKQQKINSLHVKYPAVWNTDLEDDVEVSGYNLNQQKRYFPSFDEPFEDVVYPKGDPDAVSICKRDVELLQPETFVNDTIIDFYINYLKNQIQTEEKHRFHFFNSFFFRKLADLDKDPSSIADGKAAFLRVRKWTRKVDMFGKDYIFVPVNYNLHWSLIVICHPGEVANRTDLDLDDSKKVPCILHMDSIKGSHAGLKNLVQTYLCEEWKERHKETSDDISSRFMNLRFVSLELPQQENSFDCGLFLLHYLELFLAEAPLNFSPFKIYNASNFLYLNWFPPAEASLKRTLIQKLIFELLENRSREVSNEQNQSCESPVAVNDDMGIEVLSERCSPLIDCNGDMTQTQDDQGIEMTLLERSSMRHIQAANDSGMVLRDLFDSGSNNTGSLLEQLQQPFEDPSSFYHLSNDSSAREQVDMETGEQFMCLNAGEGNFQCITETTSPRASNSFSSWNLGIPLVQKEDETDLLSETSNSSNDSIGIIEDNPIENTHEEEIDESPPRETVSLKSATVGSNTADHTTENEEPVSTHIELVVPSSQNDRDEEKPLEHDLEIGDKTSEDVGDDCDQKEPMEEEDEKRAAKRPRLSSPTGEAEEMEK
UniProt Q0WKV8: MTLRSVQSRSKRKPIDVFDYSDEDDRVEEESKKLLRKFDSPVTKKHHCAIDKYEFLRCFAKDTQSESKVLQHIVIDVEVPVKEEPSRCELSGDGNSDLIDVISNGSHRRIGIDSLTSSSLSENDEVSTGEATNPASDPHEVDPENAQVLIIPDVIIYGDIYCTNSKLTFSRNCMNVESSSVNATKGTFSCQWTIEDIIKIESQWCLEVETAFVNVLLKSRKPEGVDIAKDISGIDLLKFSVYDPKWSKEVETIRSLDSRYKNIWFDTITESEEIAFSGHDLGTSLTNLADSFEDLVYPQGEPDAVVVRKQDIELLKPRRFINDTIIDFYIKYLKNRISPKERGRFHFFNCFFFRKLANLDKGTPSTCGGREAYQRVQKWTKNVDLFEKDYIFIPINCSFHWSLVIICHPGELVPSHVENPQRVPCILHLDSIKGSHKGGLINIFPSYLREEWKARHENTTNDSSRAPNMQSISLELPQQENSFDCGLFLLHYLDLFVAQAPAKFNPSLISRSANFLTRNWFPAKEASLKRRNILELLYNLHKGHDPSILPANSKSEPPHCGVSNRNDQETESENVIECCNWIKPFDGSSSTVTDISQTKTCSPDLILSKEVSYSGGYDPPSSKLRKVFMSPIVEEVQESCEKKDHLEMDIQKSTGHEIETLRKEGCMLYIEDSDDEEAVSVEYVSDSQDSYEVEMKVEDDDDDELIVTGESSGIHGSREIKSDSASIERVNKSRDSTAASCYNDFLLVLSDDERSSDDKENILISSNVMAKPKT

binding [1] | binding [2] | Substance
binds | – | SPF1 fused to the N-terminal domain of YFP (BiFC construct) (from UniProt Q8L7S0) (enzyme)
– | binds | SPF1, yeast two-hybrid fusion (from UniProt Q8L7S0) (enzyme)
binds | – | SPF2 fused to the N-terminal domain of YFP (BiFC construct) (from UniProt Q0WKV8) (enzyme)
– | binds | SPF2, yeast two-hybrid fusion (from UniProt Q0WKV8) (enzyme)

— PMC9338799
